From publication doi:10.1101/2022.11.02.514968 come the findings set out here.

Amino acid sequences for entries named in this document (tags omitted).
UniProt Q62318: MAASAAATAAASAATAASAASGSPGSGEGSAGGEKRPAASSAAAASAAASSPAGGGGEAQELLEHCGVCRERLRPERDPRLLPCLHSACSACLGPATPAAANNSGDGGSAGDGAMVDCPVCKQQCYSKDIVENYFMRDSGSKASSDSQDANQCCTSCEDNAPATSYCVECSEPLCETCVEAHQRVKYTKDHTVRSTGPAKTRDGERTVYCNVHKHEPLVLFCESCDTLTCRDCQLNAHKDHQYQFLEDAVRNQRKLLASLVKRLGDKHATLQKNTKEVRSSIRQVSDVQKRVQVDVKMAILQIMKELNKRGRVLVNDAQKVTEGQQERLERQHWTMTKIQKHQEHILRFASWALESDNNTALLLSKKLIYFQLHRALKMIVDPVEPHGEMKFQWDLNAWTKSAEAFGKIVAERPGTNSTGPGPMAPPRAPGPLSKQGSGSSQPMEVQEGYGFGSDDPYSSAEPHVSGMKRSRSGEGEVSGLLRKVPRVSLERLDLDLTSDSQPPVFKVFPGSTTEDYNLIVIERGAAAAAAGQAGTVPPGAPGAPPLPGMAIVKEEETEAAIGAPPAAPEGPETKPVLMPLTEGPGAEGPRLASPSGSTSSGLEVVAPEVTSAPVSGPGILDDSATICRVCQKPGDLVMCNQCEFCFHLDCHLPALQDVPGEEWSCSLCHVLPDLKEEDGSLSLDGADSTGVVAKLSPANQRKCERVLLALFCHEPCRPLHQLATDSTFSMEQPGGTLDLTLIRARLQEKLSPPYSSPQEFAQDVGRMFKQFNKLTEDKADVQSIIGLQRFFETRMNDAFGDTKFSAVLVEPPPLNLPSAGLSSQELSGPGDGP

These are yes or no findings as the source states them, for the method shown. Binding seen in cells or lysates may run through a third protein. Some results given as binding are weak or reduced against the parent protein; the word gives no strength. Tags and fused reporters may be left off the sequences shown.

In experiment [1] the target is MYC-TRIM28 (UniProt Q62318). Nature of the experiment: co-IP.
Experiment [2] addresses MYC-SETDB1 (mouse) (UniProt O88974). Nature of the experiment: co-IP.

B1: 3×Flag-POGZ (protein, UniProt Q8BZH4 1-1409)
chain: MADTDLFMECEEEELEPWQKISDVIEDSVVEDYNSVDKTTSVSVSQQPVSAPVPIAAHASVAGHLSTSTTVSNSGAQNSDSTKKTLVTLIANNNAGNTLVQQGGQPLILTQNPAPGLGTMVTQPVLRPVQVMQNANHVTSSPVASQPIFITTQGFPVRNVRPVQNAMNQVGIVLNVQQGQTVRPITLVPAPGTQFVKPTVGVPQVFSQMTPVRPGSTMPVRPTTNTFTTVIPATLTIRSTVPQSQSQQTKSTPSTSTTPTATQPTSLGQLAGQPPGQSNQTSNPKLAPSFPSPPAVSIASFVTVKRPGVTGENSNEVAKLVNTLNTVPSLGQSPGPVVVSNNSSAQRTSGPESSVKVTSSIPVFDLQDGGRKICPRCNAQFRVTEALRGHMCYCCPEMVEYQKKGKSLDAEPSVPSAAKPSSPEKTAPVTSTPSSTPIPALSPPTKVPEPNENAGDAVQTKLIMLVDDFYYGRDGGKAAQLTSFPKVATSFRCPHCTKRLKNNIRFMNHMKHHVELDQQNGEVDGHTICQHCYRQFSTPFQLQCHLENVHSPYESTTKCKICEWAFESEPLFLQHMKDTHKPGEMPYVCQVCQYRSSLYSEVDVHFRMIHEDTRHLLCPYCLKVFKNGNAFQQHYMRHQKRNVYHCNKCRLQFLFAKDKIEHKLQHHKTFRKPKQLEGLKPGTKVTIRASRGQPRTVPVSSNDAPSGTLQEAAALTSTDPLPVFLYPPVQRNIQKRAVRKMSVMGRQTCLECSFEIPDFPNHFPTYVHCSLCRYSTCCSRAYANHMINNHVPRKSPKYLALFKNSVSGIKLACTSCTFATSVGDAMAKHLVFNPSHRSSNILPRGLSWMSHLRPGQASERVFDWSMKNTYLPPPLVPNKAATVKPVGVTPAEPQELAGPVLQALPSPASTATPPATPTHPQPSALPPSATEGTECLNVSEQEEGSPVTQDPEPASGGGGGSGVGKKEQLSVKKLRVVLFALCCNTEQAAEHFRNPQRRIRRWLRRFQASQGENLEGKYLSFEAEEKLAEWVLIQREQQLPVNEETLFQKATKIGRSLEGGFKISYEWAVRFMLRHHLTPHARRAVAHTLPKHVAENAGLFIEFVQRQIHNQDLPLSMIVAIDEISLFLDTEVLSSDDRKENALQTVGTGEPWCDVVLAILADGTVLPTLVFFRGQANRFANVPDSILLEAKDSGYSDDEIMELWSTRVWKKHTACQHSKSMLVMDCHRTHLSEEVLALLSASSTLPAVVPAGCSSKIQPLDVCIKRTVKNFLHKKWKEQAREMADAACDSDVLLQLVLVWLGEVLGVIGDSPELVQRSFLVASVLPGPDGNVNSPTRNADMQEELIASLEEQLKLNGEQSEEHSASAPRPRSSPEETVEPESLHQLFEGESETESFYGFEEADLDLMEI
B1: the binding entry in experiment [1] and in experiment [2] was “binds” each time.
